Results are given in words; binding and its absence hold for the method and conditions named. Binding seen in cells or lysates may run through a third protein. Binding can be weak; no strength is given.

This assay has as its target Homothorax, homeodomain-less isoform (Hth^HM) (Drosophila melanogaster). The assay is described as follows: co-purification (Co affinity chromatography); Exd and His-tagged Hth^HM co-expressed in E. coli BL21 and co-purified through the His-tag on Hth^HM; used as a complex for EMSAs.

B1: Extradenticle (Exd) (protein, UniProt P40427 1-376)
chain: MEDPNRMLAHTGGMMAPQGYGLSGQDDGQNAGSENEVRKQKDIGEILQQIMSISEQSLDEAQARKHTLNCHRMKPALFSVLCEIKEKTVLSIRNTQEEEPPDPQLMRLDNMLIAEGVAGPEKGGGGAAAASAAAASQGGSLSIDGADNAIEHSDYRAKLAQIRQIYHQELEKYEQACNEFTTHVMNLLREQSRTRPITPKEIERMVQIIHKKFSSIQMQLKQSTCEAVMILRSRFLDARRKRRNFSKQASEILNEYFYSHLSNPYPSEEAKEELARKCGITVSQVSNWFGNKRIRYKKNIGKAQEEANLYAAKKAAGASPYSMAGPPSGTTTPMMSPAPPQDSMGYPMGSGGYDQQQPYDNSMGGYDPNLHQDLSP
In the case of B1, the binding result is given as “binds”.
